In experiment [1] the target is full-length BAF1-cYFP (Arabidopsis thaliana) (UniProt O49279). As to the kind of experiment: split reporter; BiFC: nYFP and cYFP fusions co-infiltrated by Agrobacterium into N. benthamiana leaves; YFP signal by confocal microscopy after 36 h.
Experiment [2] deals with GST-BAF1 (Arabidopsis thaliana) (UniProt O49279). Nature of the experiment: pull-down; GST or GST fusions mixed with MBP fusion protein in 50 mM Tris-HCl pH 7.5, 200 mM NaCl, 0.5% Triton X-100, 0.5 mM β-mercaptoethanol, room temperature 2 h; captured on GST beads; MBP fusion detected with anti-MBP; both purified.
Experiment [3] deals with BAF1-FLAG (Arabidopsis thaliana) (UniProt O49279). As to the kind of experiment: co-IP; Arabidopsis protoplasts co-transformed with FLAG and GFP constructs; anti-FLAG M2 on protein G Dynabeads, 4 °C; blot with anti-GFP and anti-FLAG.

Chains of the proteins cited; added tags and fusions are not shown. Lines headed by an entry give the natural chain unless they say otherwise; changes in a name come on top.
UniProt O49279: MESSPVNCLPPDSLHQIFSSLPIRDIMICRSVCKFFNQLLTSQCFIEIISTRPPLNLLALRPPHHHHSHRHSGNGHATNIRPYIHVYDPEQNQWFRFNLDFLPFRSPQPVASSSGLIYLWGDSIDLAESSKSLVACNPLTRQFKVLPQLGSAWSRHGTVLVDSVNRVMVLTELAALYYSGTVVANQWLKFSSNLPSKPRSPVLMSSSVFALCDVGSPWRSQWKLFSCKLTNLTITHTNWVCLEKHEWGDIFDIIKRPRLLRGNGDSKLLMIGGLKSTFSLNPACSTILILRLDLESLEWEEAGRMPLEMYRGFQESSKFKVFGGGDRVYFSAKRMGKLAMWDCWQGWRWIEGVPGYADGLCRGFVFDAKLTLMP
UniProt Q9LN63: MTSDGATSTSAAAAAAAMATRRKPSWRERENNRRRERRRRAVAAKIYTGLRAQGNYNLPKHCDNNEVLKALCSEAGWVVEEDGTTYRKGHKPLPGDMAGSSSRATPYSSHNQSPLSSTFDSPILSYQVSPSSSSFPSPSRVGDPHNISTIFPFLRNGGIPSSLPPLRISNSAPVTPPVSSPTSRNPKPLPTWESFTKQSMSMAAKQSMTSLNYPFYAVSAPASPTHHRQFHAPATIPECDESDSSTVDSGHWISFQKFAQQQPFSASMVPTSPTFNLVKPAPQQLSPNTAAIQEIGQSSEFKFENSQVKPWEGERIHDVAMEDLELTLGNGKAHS

These are yes or no findings as the source states them, for the method shown. Binding calls can cover weak binding; strength is not graded here. For some of these results: Binding seen in cells or lysates may run through a third protein.

On to BES1-nYFP (from UniProt Q9LN63 1-335), for which the binding result in experiment [1] is on record as “binds weakly”.
In the case of MBP-BES1 (from UniProt Q9LN63 1-335), the binding entry in experiment [2] is given as “binds”.
With “dephosphorylated BES1-GFP (from UniProt Q9LN63 1-335)”, the binding result in experiment [3] is reported as “binds”.
The same measure, in the same setting: with “phosphorylated BES1-GFP (P-BES1-GFP) (from UniProt Q9LN63 1-335)” the entry was “binds”.
